Data as given in PubChem BioAssay AID504793 (Drosophila RNAi Screening Center, 2011)
Screen: 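Genes required for cells to halt at G2/M after double-strand DNA breaks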 (primary screen). Cell system: Drosophila S2R+ cells. Reagents: long dsRNA against Drosophila genes, about 0.25 µg dsRNA per well. Duration: 4 days of dsRNA, then 4 hours of drug before read-out. Treatment: doxorubicin 0.5 µM for 4 hours to cause double-strand breaks, in cells also given a low, harmless dose of dsRNA against nbs to sensitise the assay. Measurement: 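Per-well count of mitotic cells stained for phospho-histone H3 after doxorubicin exposure, used as mitotic index; counts are raw and not normalised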. Scale: mitotic cells: higher = more cells in mitosis, weaker G2 arrest. Hit rule: 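Genes are called active only when high mitotic counts were reproduced with independent dsRNAs and mitosis was checked for delay without damage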. Calls: active = confirmed in follow-up tests; inactive = not confirmed.
The screen tested about 23,000 reagents; below is a random part of those with a known target gene and a result. In the full data, 62 (0.27%) were called active. 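Calls come from follow-up tests whose scores are not deposited, so confirmed genes may have low counts here; counts are not normalised per plate.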 Raw values are not corrected between plates. Unmarked entries are inactive. A plus sign joins genes that one reagent is predicted to hit.

Target gene	DRSC id	mitotic cells, replicate 1	mitotic cells, replicate 2
Osi21 (GeneID 34566)	DRSC02408	2	
CG11449 (GeneID 40467)	DRSC11662	7	
CG11449 (GeneID 40467)	DRSC29180	6	
sna (GeneID 34908)	DRSC03613	5	
CG17217 (GeneID 34644)	DRSC02592	11	
CG3176 + CR18166 + CG32817	DRSC17271	14	
CG3176 + CR18166 + CG32817	DRSC17282	11	
CG3176 + CR18166 + CG32817	DRSC18288	6	
CG3176 + CR18166 + CG32817	DRSC28432	7	
CG9338 (GeneID 35357)	DRSC03213	4	
CG9338 (GeneID 35357)	DRSC24503	10	
Fpgs1 (GeneID 32212)	DRSC19857	12	
Fpgs1 (GeneID 32212)	DRSC25579	11	
oc (GeneID 31802)	DRSC25006	2	
CG34148 + P5CDh2	DRSC13519	58	
Cad89D (GeneID 42006)	DRSC15022	5	
CG15144 (GeneID 35063)	DRSC02445	5	
CG15144 (GeneID 35063)	DRSC27073	2	
Pdcd4 (GeneID 32337)	DRSC19360	11	
CG6685 (GeneID 39172)	DRSC10695	5	
Ser7 (GeneID 31917)	DRSC18201	6	
Prp5 (GeneID 32464)	DRSC19975	6	
Prp5 (GeneID 32464)	DRSC27434	12	
CG10911 (GeneID 37058)	DRSC06008	10	
CG13449 (GeneID 39695)	DRSC09996	6	
Roc1a (GeneID 31014)	DRSC18483	10	
CG4781 (GeneID 37943)	DRSC04488	8	
LManV (GeneID 34205)	DRSC03223	1	
LManV (GeneID 34205)	DRSC24176	9	
Ir76b (GeneID 40198)	DRSC10831	9	
Mlh1 (GeneID 35796)	DRSC07473	6	
CAH7 (GeneID 41238)	DRSC15524	7	
dpr12 (GeneID 50320)	DRSC04863	4	
dpr12 (GeneID 50320)	DRSC04892	4	
Cyp6a21 (GeneID 36665)	DRSC07381	3	
Cep290 (GeneID 38099)	DRSC08359	8	
Cep290 (GeneID 38099)	DRSC29987	3	
PIG-F (GeneID 40139)	DRSC11069	4	
PIG-F (GeneID 40139)	DRSC27027	5	
Sox21a (GeneID 39567)	DRSC10819	3	
Sox21a (GeneID 39567)	DRSC25435	1	
Zaf1 (GeneID 41394)	DRSC16121	1	
not (GeneID 40030)	DRSC11378	9	
Ugt49B2 (GeneID 42538)	DRSC16049	10	
Ugt49B2 (GeneID 42538)	DRSC24548	11	
Nelf-E (GeneID 38982)	DRSC10567	5	
Dic4 (GeneID 40039)	DRSC10317	6	
ord (GeneID 37687)	DRSC04706	4	
Hs3st-A (GeneID 37161)	DRSC06508	11	
Hs3st-A (GeneID 37161)	DRSC06509	12	
Hs3st-A (GeneID 37161)	DRSC30014	16	
CG7582 (GeneID 43492)	DRSC16261	19	
Grip (GeneID 50391)	DRSC18395	5	
Grip (GeneID 50391)	DRSC26610	5	
CG7506 (GeneID 38857)	DRSC10860	4	
MFS9 (GeneID 42426)	DRSC15560	4	
CG34234 + Dh44-R2	DRSC07278	3	
gig (GeneID 40201)	DRSC11351	6	
gig (GeneID 40201)	DRSC29781	5	
CG33110 (GeneID 42659)	DRSC16137	15	
CG33110 (GeneID 42659)	DRSC27221	6	
CG11562 (GeneID 33200)	DRSC00316	3	
CG17343 (GeneID 35180)	DRSC02606	4	
CG17343 (GeneID 35180)	DRSC22807	5	
CG17343 (GeneID 35180)	DRSC28706	7	
CG9044 (GeneID 33825)	DRSC03130	3	
Ir25a (GeneID 33683)	DRSC00462	8	
Ir25a (GeneID 33683)	DRSC26910	5	
C3G (GeneID 31618)	DRSC17929	12	
C3G (GeneID 31618)	DRSC23077	15	
C3G (GeneID 31618)	DRSC29081	7	
CG13324 (GeneID 36434)	DRSC06361	7	
CG11912 (GeneID 33205)	DRSC00332	18	
pyr (GeneID 36255)	DRSC24993	4	
RpS30 (GeneID 42470)	DRSC15119	5	
RpS30 (GeneID 42470)	DRSC26355	9	
Jon65Ai (GeneID 38685)	DRSC09731	1	
Jon65Ai (GeneID 38685)	DRSC24837	6	
CG2656 (GeneID 40857)	DRSC12584	10	
CG31204 (GeneID 318625)	DRSC15106	8	
CG31204 (GeneID 318625)	DRSC28757	6	
CG11470 (GeneID 43480)	DRSC14313	12	
Tdrd3 (GeneID 39612)	DRSC10016	1	
Sys1 (GeneID 41023)	DRSC14372	7	
vers (GeneID 39374)	DRSC23232	5	
CR40450 + CG32767	DRSC18387	8	
PpN58A (GeneID 37493)	DRSC04642	8	
PpN58A (GeneID 37493)	DRSC28243	5	
Scgdelta (GeneID 31129)	DRSC18544	15	
CG33272 (GeneID 2768958)	DRSC09116	15	
Psf1 (GeneID 38136)	DRSC08638	4	11
Psf1 (GeneID 38136)	DRSC24486	4	
CG7017 (GeneID 40213)	DRSC10762	6	
CG31245 (GeneID 42316)	DRSC15498	11	
CG14760 (GeneID 35802)	DRSC06495	2	
CG14760 (GeneID 35802)	DRSC23957	11	
CG14717 (GeneID 41412)	DRSC14940	2	
crq (GeneID 33219)	DRSC00810	6	
Drsl3 (GeneID 317955)	DRSC22630	14	
Drsl3 (GeneID 317955)	DRSC29261	1	
Mcm6 (GeneID 31603)	DRSC18680	6	
Mcm6 (GeneID 31603)	DRSC25750	3	
CG42747 (GeneID 38732)	DRSC10209	9	
CG42747 (GeneID 38732)	DRSC10210	8	
CG42747 (GeneID 38732)	DRSC26113	1	
beat-VI (GeneID 43377)	DRSC14474	10	
beat-VI (GeneID 43377)	DRSC14727	12	
CG2816 (GeneID 33595)	DRSC00539	3	
CG2816 (GeneID 33595)	DRSC24375	2	
CG15177 (GeneID 40810)	DRSC12557	5	
CG15177 (GeneID 40810)	DRSC24687	4	
BomS2 (GeneID 49802)	DRSC21488	11	
Jhbp16 (GeneID 42552)	DRSC15039	16	
Dll (GeneID 37973)	DRSC04610	5	
Dll (GeneID 37973)	DRSC27225	8	
TM9SF4 (GeneID 34778)	DRSC01888	6	
TM9SF4 (GeneID 34778)	DRSC02537	5	
sit (GeneID 42658)	DRSC15760	12	
sit (GeneID 42658)	DRSC25250	14	
Mabi (GeneID 34727)	DRSC02489	14	
Mabi (GeneID 34727)	DRSC29933	6	
FANCI (GeneID 35895)	DRSC06416	15 (active)	
Oatp58Da (GeneID 37543)	DRSC04365	11	
Oatp58Da (GeneID 37543)	DRSC25499	1	
CG9003 (GeneID 36244)	DRSC07317	6	
CG14631 (GeneID 31049)	DRSC17792	7	
CG14631 (GeneID 31049)	DRSC17941	16	
drd (GeneID 318102)	DRSC19343	7	
drd (GeneID 318102)	DRSC21466	3	
drd (GeneID 318102)	DRSC26473	5	
Tk (GeneID 41456)	DRSC14954	8	
Tk (GeneID 41456)	DRSC21972	6	
Tk (GeneID 41456)	DRSC27140	3	
Ance-3 (GeneID 34808)	DRSC02648	8	
Ance-3 (GeneID 34808)	DRSC02649	7	
CG3942 (GeneID 41489)	DRSC15525	3	
CG3942 (GeneID 41489)	DRSC26921	7	
CG30286 (GeneID 246529)	DRSC04070	8	
Ctu1 (GeneID 35920)	DRSC07069	11	
wal (GeneID 36252)	DRSC07717	4	
wal (GeneID 36252)	DRSC26330	5	

Called active (from the list above):
Target gene	DRSC id	mitotic cells, replicate 1	mitotic cells, replicate 2
FANCI (GeneID 35895)	DRSC06416	15 (active)	
